Experimental data from paper PMC7819943, “Rice protein-binding microarrays: a tool to detect cis-acting elements near promoter regions in rice”.
The list shows a part of the results.

Protein sequences, listed by entry. Tags and fused reporters are not part of them.
UniProt Q0JBA9, entry or part of it: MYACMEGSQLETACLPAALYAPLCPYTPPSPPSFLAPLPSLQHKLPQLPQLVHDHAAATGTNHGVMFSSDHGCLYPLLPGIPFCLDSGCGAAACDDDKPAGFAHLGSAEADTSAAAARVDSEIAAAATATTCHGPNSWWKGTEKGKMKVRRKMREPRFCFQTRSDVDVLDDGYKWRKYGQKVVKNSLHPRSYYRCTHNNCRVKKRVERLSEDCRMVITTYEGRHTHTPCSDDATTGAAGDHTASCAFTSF

These sequences were tested against OsWRKY34 (Oryza sativa, UniProt Q0JBA9 1-250) (assay: protein-binding microarray (RPBM); PBS, 2% BSA, 51.3 ng/ul salmon testes DNA, 50 uM zinc acetate, 200 nM TF, 25 C, 1 h; high values mean tight binding). Details: protein: recombinant; tags: N-terminal polyhistidine and DsRed monomer fusion (pET32a); label: CyDye5-dUTP incorporated in the synthesized complementary strand; 3' TTTTT single-stranded linker to array surface; dsDNA, one strand shown.
Summary of the method: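 Using Ni–NTA, transcription factors fused N-terminally to polyhistidine and DsRed were purified after expression in E. coli BL21-CodonPlus. These were incubated at 200 nM with a blocked, double-stranded custom Agilent array for 1 h at 25 °C in a buffer containing 50 µM zinc acetate, and the array was washed. The binding signal is per-feature fluorescence intensity (arbitrary units) on an Axon 4000B scanner.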

Sequence	binding signal
TCCCCGCTAGTCGCCCGCCCGTCTTCCCGCCGCCCGTCGGCGGAGTCACCTAGTGCAG	9950 fluorescence intensity (a.u.)
CCTCCACTGTACCGTATATATAGTCAATTACCACTTCGTCCGGAGTCACCTAGTGCAG	10300 fluorescence intensity (a.u.)
TTAAGTCCATTCACGCTTATATAAAGCCAAGTTATAGTTTCGGAGTCACCTAGTGCAG	9240 fluorescence intensity (a.u.)
TTCTAGTATATACCTGTCGAGAAGCTATTATATTCTATAACGGAGTCACCTAGTGCAG	10100 fluorescence intensity (a.u.)
AGTGGTTTTGCGTTGGTTGTAAGGGTCGGGTTTGGGCAAACGGAGTCACCTAGTGCAG	13500 fluorescence intensity (a.u.)
CACCCTGACGGTCCAGCACGATCCACCCCATCTATCGAACCGGAGTCACCTAGTGCAG	10800 fluorescence intensity (a.u.)
GAGGAAGGGTACACTATTTTGCATTCTTGAAGTTCACTGACGGAGTCACCTAGTGCAG	8420 fluorescence intensity (a.u.)
CTTTCTTGCTATTTTATGGATTTTATTGAAATTGGTTCTTCGGAGTCACCTAGTGCAG	8160 fluorescence intensity (a.u.)
TCACCTTTTTACCACTTCAAATATTTTATTCTCACACATACGGAGTCACCTAGTGCAG	8360 fluorescence intensity (a.u.)
CTCCTCTTCTCTCCACCACACATGCTTCAAGTGGCTAGGACGGAGTCACCTAGTGCAG	9990 fluorescence intensity (a.u.)
CCTGCCACCTCAAACACCTGAAGCTGTCTGGTTCTTTACTCGGAGTCACCTAGTGCAG	8450 fluorescence intensity (a.u.)
AGTGAATCAGTGGTACAAAATTTCCAACCATTTTGTTGACCGGAGTCACCTAGTGCAG	9410 fluorescence intensity (a.u.)
CCCAGGCGTCACCAGTCCCACGTGGCGCCACCCCATTGGCCGGAGTCACCTAGTGCAG	9510 fluorescence intensity (a.u.)
ATTGGTTTTATCTACATGTTTGCTATTCAGGTTTATTCTGCGGAGTCACCTAGTGCAG	8400 fluorescence intensity (a.u.)
CGGGGTTATGTGTCACGTGTCAAAATGTGTGGTTTTGTACCGGAGTCACCTAGTGCAG	9200 fluorescence intensity (a.u.)
AGGAGGTGGTATTATTTTTTTTTTGGTAGAGAGGGGAGGGCGGAGTCACCTAGTGCAG	16500 fluorescence intensity (a.u.)
AACCGTTCGATCCCGTCTACCGCGTGCACCACATCGCTTCCGGAGTCACCTAGTGCAG	9260 fluorescence intensity (a.u.)
GGTTTGGCTTTGCTTCTTCCTCGCGCGGCGCCTCCCATCCCGGAGTCACCTAGTGCAG	9260 fluorescence intensity (a.u.)
GTTAATGACAGCATACCCATTCTTATTCGTTGTTATAATTCGGAGTCACCTAGTGCAG	8700 fluorescence intensity (a.u.)
AAAAACCTTTTAAATTTGTTTTTGATGTGTCTCTATCCCTCGGAGTCACCTAGTGCAG	9080 fluorescence intensity (a.u.)
GCATTATTCCGACTTCGCCGTCGTTCTCCTCCCGTCGCGGCGGAGTCACCTAGTGCAG	8640 fluorescence intensity (a.u.)

Sequence	binding signal
TGTGTGGTATGGGGAGAAATCAATAAAATGTATGAGAGAGCGGAGTCACCTAGTGCAG	8970 fluorescence intensity (a.u.)
GACTCCACGCGTCTGGATCCGGCCCACCGCCGCTGGATCTCGGAGTCACCTAGTGCAG	8520 fluorescence intensity (a.u.)
CGTTGGGCTCAAGGGGAGGGATATCTATCTAACAGTAACACGGAGTCACCTAGTGCAG	9730 fluorescence intensity (a.u.)
CCCGCTTGCATCCCTAGACATGATCCATCCACCTTCTTATCGGAGTCACCTAGTGCAG	9860 fluorescence intensity (a.u.)
AAATTGCCCTTGTGACCATTTAGTTGACTTGTGTGGAGGACGGAGTCACCTAGTGCAG	8080 fluorescence intensity (a.u.)
GTTGTGGGTTTTCGTATTTAATGTTTGACTGTCTATTTTACGGAGTCACCTAGTGCAG	17300 fluorescence intensity (a.u.)
CAATAGTCACGGGTGTATCTGTGTCCTTGTGGGTGTTTATCGGAGTCACCTAGTGCAG	10800 fluorescence intensity (a.u.)
TGCATTTGTCTAGGGCCTGGTTTAGTTCCTAACTTTTTTTCGGAGTCACCTAGTGCAG	11800 fluorescence intensity (a.u.)
TGAATATGCTGCCCATTGCACAAGATTGGGCGAGGGAGGGCGGAGTCACCTAGTGCAG	8700 fluorescence intensity (a.u.)
GCCATTAGCGCTCCACGTGTCCTCTTAGGCACTTCACCAACGGAGTCACCTAGTGCAG	8560 fluorescence intensity (a.u.)
AGCTGAACTAATGCATCACCCAGTAGTTATCCCATGCTCCCGGAGTCACCTAGTGCAG	9150 fluorescence intensity (a.u.)
TATAACTCATCATCTATTGCCATGTGCTAACTTTTTCATCCGGAGTCACCTAGTGCAG	13100 fluorescence intensity (a.u.)
GTGTGAATGACTAATGGGTCCCACTCATATTTTTTAATTCCGGAGTCACCTAGTGCAG	8620 fluorescence intensity (a.u.)
ACAAACTAGCGCCTCCATCTCTCACTGGCAGCCGGGCCCCCGGAGTCACCTAGTGCAG	8270 fluorescence intensity (a.u.)
GACTGCCTCCGCAACGGCGCGTCCACGATCCCACGTTCCCCGGAGTCACCTAGTGCAG	11000 fluorescence intensity (a.u.)
TTGACCTCTTCGCTTATCCTCTACACCCGTCTCGATCTTTCGGAGTCACCTAGTGCAG	11400 fluorescence intensity (a.u.)
GTTAGCATCAGCCTAACACCTGCCCATTTCGTCCCTTTTTCGGAGTCACCTAGTGCAG	13000 fluorescence intensity (a.u.)
GAGGTCATACTTTTTAATTCGATGACCTTGTATGCATAAACGGAGTCACCTAGTGCAG	8260 fluorescence intensity (a.u.)
GGTACAGTACGCTGGATTGGCAGTTCTATCTATATTGTACCGGAGTCACCTAGTGCAG	8930 fluorescence intensity (a.u.)
ACATGTTTGACCATTCGTCTTATTCAAAAATTTTATGCAACGGAGTCACCTAGTGCAG	10100 fluorescence intensity (a.u.)
CCCACAGGTCCATTCACCCAGCTCAGCACAGCATCCTATCCGGAGTCACCTAGTGCAG	8490 fluorescence intensity (a.u.)

Given as comma-separated lines: part of the list above
Sequence,binding signal
CCCGCTTGCATCCCTAGACATGATCCATCCACCTTCTTATCGGAGTCACCTAGTGCAG,9860 fluorescence intensity (a.u.)
GCCATTAGCGCTCCACGTGTCCTCTTAGGCACTTCACCAACGGAGTCACCTAGTGCAG,8560 fluorescence intensity (a.u.)
AGCTGAACTAATGCATCACCCAGTAGTTATCCCATGCTCCCGGAGTCACCTAGTGCAG,9150 fluorescence intensity (a.u.)
